# Measured values taken from the supplement of paper PMC7830784.
# Structures can show the parent of a compound that is named as a salt. This is one part of the list. Most values lie within the scatter of the assay; repeated measurements hardly agree.
# Test system: Brugia pahangi adult female
# Assay: motility inhibition on day 3 relative to DMSO vehicle; higher = more active
# Details: 10 µM; 3 days
row,Compound,motility inhibition on day 3 [%]
1,COc1ccc(C(=O)NCc2ccc(OCCN(C)C)cc2)cc1OC [itopride  hydrochloride],< 0
2,N[C@@H](C(=O)N[C@@H]1C(=O)N2C(C(=O)O)=C(Cl)CS[C@H]12)c1ccccc1 [cefaclor],5.3
3,CC(C)CN(C[C@@H](OP(=O)(O)O)[C@H](Cc1ccccc1)NC(=O)O[C@H]1CCOC1)S(=O)(=O)c1ccc(N)cc1 [Fosamprenavir Calcium Salt],2.07
4,Cc1ccc2c(Cl)cc(Cl)c(O)c2n1 [chlorquinaldol],< 0
5,N=C(N)N/N=C/c1c(Cl)cccc1Cl [Guanabenz acetate],21.2
6,N=C(N)N/N=C/c1c(Cl)cccc1Cl [guanabenz acetate],21.7
7,OC(CCN1CCCCC1)(c1ccccc1)C1CCCCC1 (configuration not stated) [Trihexyphenidyl hydrochloride],7.65
8,O=C(OCc1ccccc1)c1ccccc1 [benzyl benzoate],2.46
9,CCCc1nc(C(C)(C)O)c(C(=O)O)n1Cc1ccc(-c2ccccc2-c2nnn[nH]2)cc1 [olmesartan],31.1
10,Brc1c(NC2=NCCN2)ccc2nccnc12,< 0
11,CN(C)CCOC(=O)COc1ccc(Cl)cc1 [meclofenoxate hydrochloride],9.78
12,CC(N)C12CC3CC(CC(C3)C1)C2 (configuration not stated) [rimantadine hydrochloride],19
13,COC(=O)C(N)CS (configuration not stated) [mecysteine hydrochloride],< 0
14,Nc1cc(-c2ccncc2)c[nH]c1=O [amrinone],2.63
15,CN(CCOc1ccc(CC2SC(=O)NC2=O)cc1)c1ccccn1 (configuration not stated) [rosiglitazone],33
16,CN(C)CC[C@@H](c1ccc(Cl)cc1)c1ccccn1 [dexchlorpheniramine maleate],12.8
17,CCc1oc2ccccc2c1C(=O)c1cc(Br)c(O)c(Br)c1 [benzbromarone],5.12
18,CC/C(=C(\c1ccccc1)c1ccc(OCCN(C)C)cc1)c1ccccc1 [Tamoxifen citrate],10.1
19,CN[C@@H]1[C@H](O[C@H]2[C@H](O[C@H]3[C@H](O)[C@@H](O)[C@H](NC(=N)N)[C@@H](O)[C@@H]3NC(=N)N)O[C@@H](C)[C@]2(O)CO)O[C@@H](CO)[C@H](O)[C@H]1O [dihydrostreptomycin sulfate],0.0193
20,NCc1ccc(S(N)(=O)=O)cc1 [mafenide hydrochloride],15.4
21,CC(C)(C)NCC(O)c1cc(O)cc(O)c1 (configuration not stated) [terbutaline hemisulfate],< 0
22,CC[N+](CC)(CC)CCOc1cccc(OCC[N+](CC)(CC)CC)c1OCC[N+](CC)(CC)CC [Gallamine triethiodide],30.8
23,CCOC(=O)[N-]c1c[n+](N2CCOCC2)no1 [molsidomine],< 0
24,C#C[C@]1(O)CC[C@H]2[C@@H]3CCC4=C(CCC(=O)C4)[C@H]3CC[C@@]21C [norethynodrel],14.4
25,COc1cc2ncnc(Nc3ccc(F)c(Cl)c3)c2cc1OCCCN1CCOCC1 [gefitinib],14.1
26,CCOc1ccc(NC(C)=O)cc1 [phenacetin],8.06

row,Compound,motility inhibition on day 3 [%]
1,CN1CCC[C@@H]1CCO[C@](C)(c1ccccc1)c1ccc(Cl)cc1 [clemastine],11.5
2,O=C(O)c1ccccc1 [benzoic acid],24.6
3,CC[C@@H]([C@H](C)O)n1ncn(-c2ccc(N3CCN(c4ccc(OC[C@@H]5CO[C@@](Cn6cncn6)(c6ccc(F)cc6F)C5)cc4)CC3)cc2)c1=O [Posaconazole],91.3
4,CC(=O)Nc1ccc(C(=O)O)cc1 [acedoben],1.43
5,CCCCC[C@H](O)/C=C/[C@H]1[C@H](O)CC(=O)[C@@H]1CCCCCCC(=O)O [Prostaglandin E1],6.47
6,COc1ccc(CN2CCN(C(c3ccc(F)cc3)c3ccc(F)cc3)CC2)c(OC)c1OC [lomerizine hydrochloride],< 0
7,OCc1ccccn1 [piconol],28.1
8,Nc1nc2[nH]cc(CCc3ccc(C(=O)N[C@@H](CCC(=O)O)C(=O)O)cc3)c2c(=O)[nH]1 [pemetrexed],< 0
9,COCCc1ccc(OCC(O)CNC(C)C)cc1 (configuration not stated) [metoprolol tartrate],< 0
10,COc1ccc(C(=O)c2ccccc2O)c(O)c1 [dioxybenzone],< 0
11,CC(C)(C)NC[C@H](O)COc1ccccc1C1CCCC1 [penbutolol sulfate],7.81
12,CC1CCCC(C)N1 (configuration not stated) [nanofin],1.91
13,Cc1ncc(COP(=O)([O-])[O-])c(CN(CCN(CC(=O)O)Cc2c(COP(=O)([O-])O)cnc(C)c2O)CC(=O)O)c1O.[Mn].[Na+].[Na+].[Na+] [mangafodipir trisodium],3.58
14,CC1=C(C/C=C(\C)CCC[C@H](C)CCC[C@H](C)CCCC(C)C)C(=O)c2ccccc2C1=O [phytonadione],37.7
15,O=C(O)C1(C(=O)O)CCC1.[NH2-].[NH2-].[Pt+2] [carboplatin],33.4
16,O=C(O)C1(C(=O)O)CCC1.[NH2-].[NH2-].[Pt+2] [Carboplatin],7.41
17,Cc1cnc(C(=O)O)c[n+]1[O-] [acipimox],< 0
18,CC(=O)Nc1cccc(O)c1 [metacetamol],< 0
19,CCCCNc1ccc(C(=O)OCCN(C)C)cc1 [Tetracaine hydrochloride],< 0
20,CCCCCOC(=O)Nc1nc(=O)n([C@@H]2O[C@H](C)[C@@H](O)[C@H]2O)cc1F [capecitabine],2.03
21,CCN(CC)CCOc1ccc(C(=C(Cl)c2ccccc2)c2ccccc2)cc1 [clomiphene citrate],10.5
22,CN1CCC(=C2c3ccccc3CCc3sccc32)CC1 [pizotyline malate],21.8
23,CN1CCOC(c2ccccc2)c2ccccc2C1 (configuration not stated) [nefopam],5.18
24,O=S(=O)(O)c1cc(I)c(O)c2ncccc12 [chiniofon],10.2
25,O=C1[C@H](CC[C@H](O)c2ccc(F)cc2)[C@@H](c2ccc(O)cc2)N1c1ccc(F)cc1 [ezetimibe],5.79
26,Cc1cnc(C(=O)NCCc2ccc(S(=O)(=O)NC(=O)NC3CCCCC3)cc2)cn1 [Glipizide],3.67

# Laid out differently: results already given
row	Compound	motility inhibition on day 3 [%]
7	OC(CCN1CCCCC1)(c1ccccc1)C1CCCCC1 (configuration not stated) [Trihexyphenidyl hydrochloride]	7.65
8	O=C(OCc1ccccc1)c1ccccc1 [benzyl benzoate]	2.46
9	CCCc1nc(C(C)(C)O)c(C(=O)O)n1Cc1ccc(-c2ccccc2-c2nnn[nH]2)cc1 [olmesartan]	31.1
10	Brc1c(NC2=NCCN2)ccc2nccnc12	< 0
11	CN(C)CCOC(=O)COc1ccc(Cl)cc1 [meclofenoxate hydrochloride]	9.78
12	CC(N)C12CC3CC(CC(C3)C1)C2 (configuration not stated) [rimantadine hydrochloride]	19
13	COC(=O)C(N)CS (configuration not stated) [mecysteine hydrochloride]	< 0
14	Nc1cc(-c2ccncc2)c[nH]c1=O [amrinone]	2.63
15	CN(CCOc1ccc(CC2SC(=O)NC2=O)cc1)c1ccccn1 (configuration not stated) [rosiglitazone]	33
16	CN(C)CC[C@@H](c1ccc(Cl)cc1)c1ccccn1 [dexchlorpheniramine maleate]	12.8
17	CCc1oc2ccccc2c1C(=O)c1cc(Br)c(O)c(Br)c1 [benzbromarone]	5.12
18	CC/C(=C(\c1ccccc1)c1ccc(OCCN(C)C)cc1)c1ccccc1 [Tamoxifen citrate]	10.1
19	CN[C@@H]1[C@H](O[C@H]2[C@H](O[C@H]3[C@H](O)[C@@H](O)[C@H](NC(=N)N)[C@@H](O)[C@@H]3NC(=N)N)O[C@@H](C)[C@]2(O)CO)O[C@@H](CO)[C@H](O)[C@H]1O [dihydrostreptomycin sulfate]	0.0193
20	NCc1ccc(S(N)(=O)=O)cc1 [mafenide hydrochloride]	15.4
21	CC(C)(C)NCC(O)c1cc(O)cc(O)c1 (configuration not stated) [terbutaline hemisulfate]	< 0
